Where “and” joins values, the source holds several entries; their conditions need not be identical. Equal values may be shown once. About 6,000 (1.7%) of roughly 350,000 compounds were called active. The shares of active, inactive and inconclusive entries below differ from those in the screen. No stated cut-off is given here; in the data, active means CPE inhibition above about 20% (passing the limit was not always enough); inconclusive means no clear call, values can overlap the other calls; tested in BHK-21 cells. Some compounds were tested as several samples or in several runs, with calls that do not always agree.
Assay: protection of cells from dengue 2 killing – plate reader, single concentration, primary screen (AID 651640);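 further: 0% = median of neutral control wells and 100% = median of positive control wells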
Settings: DENV2-infected cells, cytopathic effect rescue, at 9.99 µM, stronger effect = higher value

Compound	CPE inhibition
CO[C@@H]1CN(C)C(=O)c2ccc(NC(=O)Nc3ccccc3Cl)cc2OC[C@@H](C)N(C)C[C@H]1C	inconclusive: 41.7%
CC1=C(C(=O)N(C(C)C)C(C)C)CC(CC(=O)NC2CC2)C(=O)N1Cc1ccc(C(C)(C)C)cc1 (stereo unspecified)	inconclusive: 53.4%
CN(C)C(=O)c1ccc(-c2ccc3c(c2)[C@H]2[C@H](CCN2Cc2ccc4c(c2)OCO4)[C@H](CO)N3)cc1	inconclusive: 87.6%
COc1ccc(NC(=O)Nc2cccc3c2O[C@H](CN(C)C(=O)NC(C)C)[C@H](C)CN([C@@H](C)CO)C3=O)cc1	inactive: 8.69%
CC1=CC(=O)C2=C(C)CCC3C(C)C(=O)OC3C12 (stereo unspecified)	active: 21.6%
CN(C)CC(=O)N[C@@H]1CC[C@@H](CCn2cc(C3CCCCC3)nn2)O[C@H]1CO	active: 24.1%
C[C@@H]1CN([C@@H](C)CO)C(=O)c2cccc(NC(=O)Nc3ccc(F)cc3)c2O[C@@H]1CN(C)Cc1ccc(Oc2ccccc2)cc1	active: 55.4%
C[C@H]1CCCCO[C@@H](CN(C)S(=O)(=O)c2ccccc2)[C@@H](C)CN([C@@H](C)CO)C(=O)c2cc(NC(=O)Cc3ccccc3)ccc2O1	inactive: -3.39%
CCCC#Cc1ccc2c(c1)O[C@H](CN(C)C(=O)CN(C)C)[C@H](C)CN([C@H](C)CO)S2(=O)=O	inconclusive: 48.9%
COC(=O)[C@]1(Cc2ccccc2)N[C@H](CN(C)C(=O)Nc2ccc(C(F)(F)F)cc2)[C@@H]2C(=O)N(C)C(=O)[C@@H]21	inconclusive: 24.2%
O=C(NCC[C@@H]1CC[C@@H](NC(=O)c2cnccn2)[C@@H](CO)O1)Nc1ccc(Cl)cc1	inconclusive: 23.8%
CN(C)CC(=O)N1[C@@H](C#N)[C@H](c2ccc(C#CC3CCCCC3)cc2)[C@@H]1CO	inconclusive: 36.7%
CN(C)CCCNC(=O)[C@H]1[C@H](CO)[C@H]2Cn3c(ccc(-c4cccc(F)c4)c3=O)[C@@H]1N2C	inactive: -5.1%
COc1ccccc1Cc1c(-c2cccc(Br)c2)nc2ccc(Cl)cn12	inconclusive: 55.3%
N#C[C@@H]1[C@H](c2ccc(C3=CCCC3)cc2)[C@H](CO)N1C(=O)c1ccccn1	inconclusive: 29.6%
Cc1ccc(S(=O)(=O)N(C)C)cc1NC(=O)COC(=O)C1CCCC1	active: 34.4%
C[C@H](CO)N1C[C@H](C)[C@@H](CN(C)C(=O)Nc2ccc(N3CCN(C)CC3)cc2)OCc2cnnn2CCCC1=O	inconclusive: 22%
CCCC(=O)NC(c1cccs1)c1cc(Cl)c2cccnc2c1O (stereo unspecified)	inconclusive: 25%
CCCC#Cc1ccc2c(c1)O[C@H](CN(C)C(=O)C1CCC1)[C@H](C)CN([C@H](C)CO)S2(=O)=O	active: 36.2%
O=C(CCC(=O)N1CCN(c2ccc(F)cc2)CC1)c1ccccc1	inconclusive: 23.7%
O=C(C[C@@H]1CC[C@H](NC(=O)Cc2cccnc2)[C@@H](CO)O1)Nc1ccccc1	active: 44.3%
COc1ccc(S(=O)(=O)N(C)C[C@@H]2Oc3ncc(/C=C/c4ccccc4)cc3C(=O)N([C@H](C)CO)C[C@@H]2C)cc1	inactive: 6.3% and inconclusive: 27.1%
C[C@H]1CN([C@@H](C)CO)C(=O)Cc2cc(NS(=O)(=O)c3ccc(F)cc3)ccc2O[C@@H]1CN(C)S(C)(=O)=O	active: 46.1%
O=S(=O)(c1ccc(F)cc1)N1CC[C@@H]2[C@@H](CO)Nc3ccc(C#Cc4cccc(F)c4)cc3[C@@H]21	active: 23.6%

Compound	CPE inhibition
CCOC(=O)Oc1c(OC)cc(C(=O)O[C@@H]2C[C@@H]3CN4CCc5c([nH]c6cc(OC)ccc56)[C@H]4C[C@@H]3[C@H](C(=O)OC)[C@H]2OC)cc1OC	inconclusive: 46.2%
Cc1ccc(CSc2nc3ccccc3c(=O)[nH]2)cc1	inactive: 2.26%
CC(=O)CC1c2cc(F)ccc2C=C(c2ccsc2)N1c1ccc(-c2ccc(C(N)=O)cc2)cc1 (stereo unspecified)	inconclusive: 35.8%
O=C(Cn1nc(-c2ccco2)ccc1=O)Nc1cc(C(F)(F)F)ccc1Cl	inconclusive: 22.6%
CCCNC(=O)N1CC[C@@H]2[C@H]1c1cc(-c3ccc(F)cc3)ccc1N(C)[C@H]2CO	inconclusive: 28.3%
CNc1nc(Oc2cccc(NC(C)=O)c2)c2sccc2n1	active: 52.7%
O=C(C[C@@H]1CC[C@@H](NC(=O)NC2CCCCC2)[C@@H](CO)O1)NCc1ccc(Cl)cc1	inconclusive: 26%
CC(C)NC(=O)Nc1ccc2c(c1)C(=O)N([C@H](C)CO)C[C@H](C)[C@H](CN(C)Cc1ccc(C(F)(F)F)cc1)OCCCC[C@H](C)O2	inactive: 19.1%
Cc1ccc(S(=O)(=O)NC(=NCc2ccccc2)c2ccc(F)cc2)cc1	inconclusive: 22.5%
O=C(Nc1ccccc1)n1cc(-c2ccccn2)c(N2CCOCC2)n1	inconclusive: 22.4%
Cc1cc(N2C(=O)C(O)=C(C(=O)c3ccco3)C2c2cccc(Cl)c2)no1 (stereo unspecified)	inactive: -2.34%
C[C@@H]1CCCCO[C@H](CN(C)S(C)(=O)=O)[C@@H](C)CN([C@@H](C)CO)C(=O)c2cc(NC(=O)Nc3cccc4ccccc34)ccc2O1	inactive: 0.35%
CC(=O)c1ccc(OCC(=O)Nc2ccccc2C(=O)NC2CC2)cc1	inconclusive: 27.4%
C[C@@H]1CN([C@H](C)CO)C(=O)c2cc(-c3cccnc3)cnc2O[C@H]1CN(C)Cc1ccc(-c2ccccc2)cc1	inactive: -5.24%
COC(=O)Cc1csc(Nc2ccc(F)c(Cl)c2)n1	inconclusive: 26.7%
O=C(N[C@H]1CC[C@H](CCNC(=O)c2ccccc2F)O[C@@H]1CO)c1cnccn1	inconclusive: 33.9%
COc1ccc(S(=O)(=O)Nc2cccc3c2O[C@@H](CN(C)C(=O)Nc2ccccc2)[C@@H](C)CN([C@H](C)CO)C3=O)cc1	inconclusive: 24.5%
CC(C)[C@@H](C(=O)NC1CCN(Cc2ccccc2)CC1)N1C(=O)N2CCc3c([nH]c4ccccc34)[C@@]2(C)C1=O	active: 38.9%
COc1ccc2c3c(n(C)c2c1)[C@H](CO)N(C(=O)NC(C)C)CC31CN(Cc2nccs2)C1	inconclusive: 30.9%
CCCC(=O)Nc1cc(OC)c(NC(=S)Nc2cccc(C)c2)cc1OC	active: 91.6%
COc1ccc(Cc2nnc(NC(=O)Nc3ccc(F)cc3)s2)cc1	inconclusive: 32.5%
NC(=O)C1CCN(C(=O)C2(NC(=O)Nc3cccc(F)c3)CCCCC2)CC1	active: 44.8%
Cc1nn2c(-c3ccc(F)cc3)ccnc2c1Cl	inactive: 7.4%
O=C(c1cc2ccccc2[nH]1)N(Cc1cccnc1)CC1CCCN(C2CCCCC2)C1 (stereo unspecified)	inconclusive: 25.1%

Part of the list above in order of number of heavy atoms, descending.
Compound	CPE inhibition
C[C@H]1CCCCO[C@@H](CN(C)S(=O)(=O)c2ccccc2)[C@@H](C)CN([C@@H](C)CO)C(=O)c2cc(NC(=O)Cc3ccccc3)ccc2O1	inactive: -3.39%
COc1ccc(S(=O)(=O)Nc2cccc3c2O[C@@H](CN(C)C(=O)Nc2ccccc2)[C@@H](C)CN([C@H](C)CO)C3=O)cc1	inconclusive: 24.5%
CO[C@@H]1CN(C)C(=O)c2ccc(NC(=O)Nc3ccccc3Cl)cc2OC[C@@H](C)N(C)C[C@H]1C	inconclusive: 41.7%

Next compounds.

Compound	CPE inhibition
Cc1cc(O)c(C(C)C)cc1NC(=O)c1ccccc1Cl	active: 27.7%
Cc1ccc2nc(SCC(=O)Nc3nonc3N)[nH]c2c1	inactive: -1.53%
CC(C)(C)NC(=O)C(c1ccc(Cl)cc1)N(Cc1ccco1)C(=O)CCl (stereo unspecified)	inconclusive: 35.9%
FC(F)(F)C1=NNC(c2ccc3ccccc3c2)=NN1	inconclusive: 20.5%
Cc1nc2sc(C(c3cccs3)N3CCC(C(N)=O)CC3)c(O)n2n1 (stereo unspecified)	inconclusive: 46.6%
Cc1ccc(-n2cc[nH]c2=S)c(C)c1	inactive: 0.0895%
CCN(CC)c1nc(N)c2c(N)nc(OC)cc2c1C#N	inconclusive: 69.9%
COc1cccc(C#Cc2ccc3c(c2)[C@@H]2[C@@H](CCN2C(=O)CC2CC2)[C@H](CO)N3)c1	inactive: -1.18%
O=C1c2ccccc2NC(c2ccccc2O)N1O (stereo unspecified)	inconclusive: 55.8%
O=C(CCC1CCCN(C(=O)c2ccc3c(c2)OCO3)C1)N1CCN(c2ccccn2)CC1 (stereo unspecified)	inconclusive: 31.8%
CCc1nc2c(OCc3ccc(Cl)cc3)cccn2c1N(C)C(=O)c1ccncc1	inconclusive: 38.1%
O=C1C[C@@](C(=O)NCCN2CCOCC2)(c2ccc([N+](=O)[O-])cc2)[C@@H](c2ccc(CO)cc2I)N1CC12CC3CC(CC(C3)C1)C2	inactive: -2.94%
O=C(Cc1ccc(Cl)cc1)Nc1cc(S(=O)(=O)N2CCOCC2)ccc1N1CCCC1	inactive: -0.018%
CCC(C(=O)Nc1c(C)cccc1C)n1c(-c2ccc(-c3ccccc3)cc2)nc2ccccc21 (stereo unspecified)	inconclusive: 26.9%
CCCCCNC(=O)C(c1cc2ccccc2o1)n1c(=O)c(-c2cc3ccccc3[nH]2)nc2ccccc21 (stereo unspecified)	inconclusive: 20.6%
CCC(C(=O)NCCCN(CC)Cc1ccccc1)n1nc(C)c2sc3ccccc3c2c1=O (stereo unspecified)	inconclusive: 27%
O=C(CCC(=O)OCc1ccc([N+](=O)[O-])cc1Cl)Nc1ccccc1	inconclusive: 31.9%
CCC(=O)N1C[C@@H](C)[C@@H](OC)CN(C)C(=O)c2cc(NC(=O)C3CC3)ccc2OC[C@H]1C	inactive: -7.25%
C[C@H](CO)N1C[C@H](C)[C@H](CN(C)Cc2ccc(C(F)(F)F)cc2)OCCCC[C@H](C)Oc2ccc(NS(=O)(=O)c3ccc(Cl)cc3)cc2C1=O	inconclusive: 57.2%
CN(C)C(=O)C[C@@H]1CC[C@H]2[C@H](COc3ccc(NC(=O)C4CCC4)cc3C(=O)N2C)O1	inconclusive: 25.2%
O=C1C(Cl)=C(NCc2ccco2)C(=O)c2ccccc21	inconclusive: 23%
COc1ccc(NC(=S)N(CCCN2CCOCC2)Cc2cn(C)c3ccccc23)cc1	inconclusive: 26.1%
COc1ccc(S(=O)(=O)Cc2ccc(C(=O)N3CCc4ccccc4C3)o2)cc1	inconclusive: 34.8%

— PubChem BioAssay AID651640 (Broad Institute, 2012)
